# Test results published in PubChem BioAssay AID2685 (National Center for Advancing Translational Sciences (NCATS), 2010).
# The whole screen tested about 320,000 compounds, of which about 2,100 (0.66%) were called active. The inconclusive results got no clear call from the source; some entries with a clear call stand among them for comparison. The call rests on the fitted dose curve; in most records, active means well fitted inhibition curve with a large enough effect in the signal ratio, with a control signal flat (not every such curve was filed as active); inconclusive means small, poorly fitted or top-dose-only effect, or effect the other way, or a change in a side signal; inactive means flat fitted curve, though single readings scatter; the % refers to the signal ratio. A potency beside an inconclusive call is a rough fit, not a confirmed value.
# Assay: qHTS Assay for Lipid Storage Modulators in Drosophila S3 Cells
# Conditions: BODIPY lipid droplet fluorescence, 18-24 h, cells fed with added oleic acid; lipid storage change, negative = inhibition: at 46.1 µM (top of the series) unless noted
# Method in brief: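 Drosophila S3 cells loaded with oleic acid (400 uM, as added) and compounds at several concentrations; lipid droplets imaged by 488-nm laser-scanning cytometry, 500–530 nm intensity and object ratio to cell channel. Percent activity normalized to 20 uM Triacsin C.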
# On the % scale 0 is the no-effect control and ±100 the full control effect; potency means the concentration at half of the fitted maximal effect.
SMILES,"lipid storage change, negative = inhibition",Potency
O=S(=O)(c1cccc2cccnc12)N1CCc2ccccc21,inconclusive: 23%,
O=C(c1ccccc1)C(O)c1ccccc1 (stereo unspecified),inconclusive: 10.7%,
O=C(O)CC(Cc1ccc(Br)cc1)C(=O)Nc1ccccc1 (stereo unspecified),,"inconclusive: 29.1 µM [activator, single point]"
CN1CCN(Cc2nnc(-c3ccccc3)o2)CC1,inconclusive: 8.18%,
NC(=O)C1CCN(C(=O)c2ccc(C(F)(F)F)cc2)CC1,inconclusive: 4.33%,
COc1ccc(N2C(=NC(=O)C3CCCCC3)SC3CS(=O)(=O)CC32)cc1OC (stereo unspecified),inconclusive: 149%,
Clc1ccc(OCc2nn3c(-c4ccco4)nnc3s2)cc1,inconclusive: -11.9%,
Cc1cc(CNC(=O)C(C)n2nc(C)c([N+](=O)[O-])c2C)c2ccccc2n1 (stereo unspecified),inconclusive: 14.9%,
CCN(c1ccccc1)S(=O)(=O)c1ccc(Cl)c(NC(=O)COC(=O)c2cc(O)c3ccccc3c2O)c1,inconclusive: -67.4%,
CCOc1ccc(-n2c(=O)cc(N3CCN(c4ccc(F)cc4)CC3)[nH]c2=O)cc1,inactive: 20.6%,
Cc1cc(C)n2nc(C(=O)OCC(=O)N(C)CC(=O)Nc3ccccc3Cl)nc2n1,inconclusive: -10.4%,
COC(=O)C1=NN(c2ccc(OC)cc2)C2C(=O)N(c3ccccc3OC)C(=O)C12 (stereo unspecified),inconclusive: 22.9%,
Cc1c(=O)n(OCc2ccc(Cl)cc2)c2ccccc2[n+]1[O-],inconclusive: 13.4%,
CCOC(=O)N1CCN(S(=O)(=O)c2ccc(F)c(C(=O)Nc3ccc(C)c(Cl)c3)c2)CC1,inconclusive: 32.3%,
COc1cccc(COC(=O)c2ccc(S(=O)(=O)N3CCC(C)CC3)cc2)c1OC,inconclusive: -77.1%,
CC(C)(C)C(=O)Nc1ccc(C(=O)N/N=C/C2CC3C=CC2C3)cc1 (stereo unspecified),inconclusive: 17.4%,
COc1cc(C(=O)NNC(=O)c2cc(-c3ccccc3)n[nH]2)cc(OC)c1C,,"inconclusive: 29.1 µM [falling, single point]"
Cc1[nH]n(-c2ccccc2)c(=O)c1C=Nc1cnc2ccccc2c1,inconclusive: -3.96%,
CCn1c(=O)c2cc(C(=O)NCCC(C)C)sc2c2ccccc21,inconclusive: -37.9%,
Cc1ccc(S(=O)(=O)N2CCC(C(=O)N[C@H](C(=O)NCc3ccco3)C(C)C)CC2)cc1,inconclusive: -1.15%,
COC(=O)c1ccc(NC(=O)COc2cccc(-n3cnnn3)c2)cc1,,"inconclusive: 29.1 µM [activator, partial curve, poor fit]"
Cc1ncc(CO)c2c1Oc1nc(-c3ccccc3)nc(SCC(=O)N(C)c3ccccc3)c1C2,,"inconclusive: 29.1 µM [falling, single point]"
CCOC(=O)N1CCN(S(=O)(=O)c2ccc(C(=O)N(CCCN(C)C)c3nc4ccc(OC)cc4s3)cc2)CC1,inconclusive: 14.4%,
Cc1ccc(-n2c3c(cc(C(=O)NCc4ccco4)c2=O)C(=O)CC(C)(C)C3)cc1,inconclusive: -0.235%,
CN1C(=O)/C(=C2/C=Cc3ccccc3N2CCCS(=O)(=O)O)SC1=S,,"inconclusive: 16.4 µM [falling, single point]"
Cc1ccc(-c2nn(-c3ccccc3)cc2C2SCC(=O)N2Cc2ccccc2)o1 (stereo unspecified),inconclusive: 39.1%,

SMILES,"lipid storage change, negative = inhibition",Potency
Cc1ccc(S(=O)(=O)Nc2nc(C)c(C(=O)N/N=C/c3ccccc3)s2)cc1,inconclusive: 2.65%,
CCN1C(=NCCOC)N[C@@H](c2cccs2)C(C(=O)OC)=C1C,inconclusive: 24.1%,
COc1ccc(OCc2cc(C(=O)N3CCCC(OC)C3)no2)c2ccccc12 (stereo unspecified),inconclusive: 23.4%,
COC(=O)c1ccc(OCCOCCOc2cccc3ccc(C)nc23)cc1,inconclusive: 30.1%,
COc1ccc(S(=O)(=O)N(C)CC(=O)N2CCCCCC2)cc1,inactive: 9.93%,
O=C(NNC(=O)C1CC(c2cccs2)=NO1)NC1CCCCC1 (stereo unspecified),inconclusive: 8.59%,
O=C(NC1CC2CCCC(C1)N2Cc1cccs1)c1ccc([N+](=O)[O-])cc1 (stereo unspecified),inconclusive: 5.27%,
O=C(NCc1ccc(Cl)cc1)c1ccc(Cl)cc1[N+](=O)[O-],inconclusive: 484%,
COc1cccc(C2C(C(=O)OCc3ccccc3)=C(C)Nc3ncnn32)c1OC (stereo unspecified),inconclusive: -8.92%,
CN=c1scc(-c2ccccc2F)n1/N=C/c1ccc[nH]1,inconclusive: 14%,
CC(Cc1ccccc1)NC(=O)CCCN1C(=O)c2ccccc2C1=O (stereo unspecified),inconclusive: 43.7%,
O=C(CN1CCCCCC1)NCc1ccccc1,inconclusive: -17.7%,
CC12CC3(C)CC(C)(C1)CC(C(=O)NCc1cccnc1)(C2)C3,inconclusive: -102%,
O=C(N/N=C/c1ccccc1O)C1CC(=O)N(c2ccc(Cl)cc2)C1 (stereo unspecified),,"inconclusive: 32.6 µM [falling, single point]"
COc1ccc(OC)c(NC(=O)CN2C(=O)COc3ccc(C)cc32)c1,inconclusive: 2.4%,
COc1cc(C(=O)N2CCC(NC(=O)C(Cc3ccccc3)NC(C)=O)CC2)cc(OC)c1OC (stereo unspecified),,"inconclusive: 29.1 µM [activator, single point]"
O=C(c1ccco1)N1CCN(S(=O)(=O)c2cccs2)CC1,inconclusive: 20%,
Cc1ccc(N2C(=O)CC(Sc3ccccc3C(=O)O)C2=O)cc1 (stereo unspecified),inconclusive: -31.6%,
CC(=O)N1CCN(S(=O)(=O)c2cccc(C(=O)NC3CCC(C)CC3)c2)CC1 (stereo unspecified),inconclusive: -12.2%,
Cn1c(C(=O)N2CCCC(C(=O)N3CCN(C(=O)c4ccco4)CC3)C2)cc2sccc21 (stereo unspecified),inconclusive: 12.6%,
CC1CCN(S(=O)(=O)c2cccc(C(=O)NCC3CCCO3)c2)CC1 (stereo unspecified),inconclusive: 4.02%,
CN1c2ccccc2C(C)(C)C12CC(CCl)=NO2 (stereo unspecified),inconclusive: -5.78%,
COc1ccc2nc(C)c(C(=O)OCCN(C)C)cc2c1,inconclusive: -5.05%,
CCOC(=O)C1CCN(C(=O)C2CCCN(S(=O)(=O)c3ccc(OC)c(Cl)c3)C2)CC1 (stereo unspecified),inconclusive: -70.7%,
COc1ccc(CNC(=O)c2ccccc2NS(C)(=O)=O)cc1,inconclusive: -37.4% [cytotoxic] [at 0.00295 µM],

# Whole records, quoted from the list.
# COc1ccc(OC)c(NC(=O)CN2C(=O)COc3ccc(C)cc32)c1 reads lipid storage change, negative = inhibition: inconclusive: 2.4%
# CN1c2ccccc2C(C)(C)C12CC(CCl)=NO2 (stereo unspecified) reads lipid storage change, negative = inhibition: inconclusive: -5.78%
# CN=c1scc(-c2ccccc2F)n1/N=C/c1ccc[nH]1 reads lipid storage change, negative = inhibition: inconclusive: 14%
# CCOC(=O)C1CCN(C(=O)C2CCCN(S(=O)(=O)c3ccc(OC)c(Cl)c3)C2)CC1 (stereo unspecified) reads lipid storage change, negative = inhibition: inconclusive: -70.7%
